Experimental data as given in PubChem BioAssay AID504834 (National Center for Advancing Translational Sciences (NCATS), 2011).
About 22,000 (6.9%) of roughly 320,000 compounds were called active. Inconclusive means that the source gave no clear call. Such entries were picked first, then a sample of the others. The call rests on the fitted dose curve; in most records, active means well fitted inhibition curve with a large enough effect; inconclusive means small, poorly fitted or top-dose-only effect, or another doubt; inactive means no such curve, though single readings can be large or run the other way. Potencies of inconclusive entries are doubtful fits and often do not repeat.
Potency means the concentration at half of the fitted maximal effect.

Experiment: Primary qHTS for delayed death inhibitors of the malarial parasite plastid, 96 hour incubation
Conditions: P. falciparum luciferase reporter growth; series mostly up to 28.7 µM
In short: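 96 h incubation, 37 C, 5% CO2, of luciferase-reporter P. falciparum-infected RBCs (2% hematocrit, 0.05% parasitemia final) with test compounds; endpoint luminescence.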
For CCc1ccccc1NC(=O)CSc1nnc([C@@H](N)Cc2c[nH]c3ccccc23)o1, the Potency was inconclusive: 0.0657 µM [inhibitor, full curve, poor fit]. With COc1ccccc1NC(=O)Nc1ccc(S(=O)(=O)Nc2onc(C)c2C)cc1 the Potency was “inactive”. For COc1ccccc1OC(=O)c1ccc2nsnc2c1, the Potency was “inactive”. For COc1ccc(Nc2ncc3c(n2)CC(c2ccc(C)cc2)CC3=O)cc1 (stereo unspecified), the Potency was inconclusive: 9.28 µM [inhibitor, partial curve, poor fit]. With CC(O)C(O)C(O)C(O)/C=N/NC(=O)c1ccccc1 (stereo unspecified) the Potency was inconclusive: 10.4 µM [inhibitor, single point]. For Cc1cccc(OCC(=O)O/N=C(\N)c2ccc(Cl)cc2)c1, the Potency was inconclusive: 2.33 µM [inhibitor, full curve]. In the case of Cc1ccc(-n2nc3c(N4CCC(C(=O)NCc5ccc(C)o5)CC4)nnc(C)c3c2C)cc1, the Potency is reported as active: 10.4 µM. In the case of O=C(CSc1nnc(N2CCOCC2)n1-c1cccc(F)c1)N1CCN(c2ccccn2)CC1, the Potency is reported as inconclusive: 18.5 µM [inhibitor, single point]. With CCS(=O)(=O)C(=C(Nc1ccc(OC)cc1)Nc1ccc(OC)cc1)S(=O)(=O)CC the Potency was “inactive”. With Cc1ccc(NC(=O)Cn2nnc(C(=O)Nc3ccc(C)c(C)c3)c2N)cc1 the Potency was active: 9.28 µM. With CCCC(=O)NCc1cc(-c2nn(C)c(=O)c3ccccc23)ccc1OC the Potency was inconclusive: 1.17 µM [inhibitor, full curve, poor fit]. For CN(CC(=O)Nc1cccc(F)c1)C(=O)c1cc(-c2ccco2)nc2ccccc12, the Potency was inconclusive: 14.7 µM [inhibitor, partial curve, poor fit]. For CCC(=O)N1CCc2cc(S(=O)(=O)CCC(=O)NCCC3=CCCCC3)ccc21, the Potency was inconclusive: 18.5 µM [inhibitor, single point]. For COc1ccc(CCNc2cc(C)nc3c(-c4ccccc4OC)cnn23)cc1OC, the Potency was inconclusive: 5.86 µM [inhibitor, partial curve]. For Brc1ccc(C2CC(c3ccccc3)=Nc3ccccc3N2)cc1 (stereo unspecified), the Potency was “inactive”. In the case of COc1ccccc1C(CCN(Cc1ccccc1)C(C)=O)c1ccco1 (stereo unspecified), the Potency is reported as inconclusive: 18.5 µM [inhibitor, single point]. With N=c1n(CCCOc2ccccc2Cl)c2ccccc2n1CC(N)=O the Potency was inconclusive: 18.5 µM [inhibitor, single point]. With COc1ccccc1NC(=O)c1cn(CCC#N)nc1-c1ccc(F)cc1 the Potency was active: 11.7 µM. In the case of COc1ccccc1/C=C/C(=O)Nc1cccc(S(=O)(=O)N2CCOCC2)c1, the Potency is reported as inconclusive: 14.7 µM [inhibitor, single point]. For Cc1cc(C)cc(NC(=O)C(OC(=O)Cn2cnc3c2c(=O)n(C)c(=O)n3C)c2ccccc2)c1 (stereo unspecified), the Potency was “inactive”. In the case of COc1ccc(NC(=S)N2CCN(c3ccc([N+](=O)[O-])cc3)CC2)cc1OC, the Potency is reported as inconclusive: 2.33 µM [inhibitor, partial curve, poor fit]. In the case of NC(=O)COc1ccc(Cc2ncc(C(F)(F)F)cc2Cl)cc1, the Potency is reported as inconclusive: 8.28 µM [inhibitor, partial curve, poor fit]. In the case of COc1cccc(N2CCN(c3ccc4nnc(CCC(=O)N5CCN(C)CC5)n4n3)CC2)c1, the Potency is reported as inconclusive: 18.5 µM [inhibitor, single point]. For CC(=O)NC(=S)Nc1ccc(NC(=O)COc2ccc(C(C)C)cc2)cc1, the Potency was inconclusive: 18.5 µM [inhibitor, single point]. With C=CCOc1ccc(C2/C(=C(/O)c3ccc4c(c3)CC(C)O4)C(=O)C(=O)N2CCCN2CCOCC2)cc1 (stereo unspecified) the Potency was inconclusive: 18.5 µM [inhibitor, single point]. With CCOC(=O)c1c(CSc2ccccc2)n(C)c2ccc(O)cc12 the Potency was “inactive”. In the case of Cc1cc2nc(C(F)(F)F)[nH]c(=O)n2n1, the Potency is reported as “inactive”. For COCCn1c(N)c(S(=O)(=O)c2cccs2)c2nc3ccccc3nc21, the Potency was inconclusive: 1.65 µM [inhibitor, partial curve, poor fit]. In the case of CN(C)c1cccc(C(=O)Nc2cc(C(F)(F)F)ccc2-n2cnc3ccccc32)c1, the Potency is reported as inconclusive: 18.5 µM [inhibitor, single point]. For Cc1cccn2c(=O)c3cc(C(N)=S)c(=N)n(CCCN4CCOCC4)c3nc12, the Potency was inconclusive: 16.5 µM [inhibitor, single point]. For COc1cc2c(cc1OC)-c1cc(Nc3ccccc3C)nc(=O)n1CC2, the Potency was “inactive”. In the case of O=C(/C=C/c1cccs1)NCc1ccccc1, the Potency is reported as “inactive”. In the case of Cc1ccc(C(=O)NCCc2ccccc2)cc1N1CCCC1=O, the Potency is reported as inconclusive: 18.5 µM [inhibitor, single point]. In the case of O=C(/C=C/c1ccc([N+](=O)[O-])cc1)Nc1cccnc1, the Potency is reported as “inactive”. For CC1(C(=O)O)CCC(C(=O)NCCc2ccccc2)C1(C)C (stereo unspecified), the Potency was inconclusive: 10.4 µM [inhibitor, single point]. For COc1ccc2c(c1)OC(C)(C)C(c1ccccc1)C2c1ccc(OCCN2CCCC2)cc1 (stereo unspecified), the Potency was active: 3.01 µM. In the case of O=S(=O)(c1ccc(Cl)cc1)N1c2ccccc2Oc2nc3ccccc3nc21, the Potency is reported as inconclusive: 18.5 µM [inhibitor, single point]. With COc1ccccc1N1CCN(C(C)C(=O)N2CC(C)OC(C)C2)CC1 (stereo unspecified) the Potency was “inactive”. For Cc1ccccc1CN1CCC(N2CCC(C(=O)NCC3CCCO3)CC2)CC1 (stereo unspecified), the Potency was “inactive”. With S=C1SCN(Cc2cccnc2)CN1Cc1ccccc1 the Potency was inconclusive: 5.22 µM [inhibitor, partial curve, poor fit]. In the case of Cc1ccc(C(=O)N=c2sccn2C)o1, the Potency is reported as “inactive”. For CCN(Cc1nc2cc(Cl)ccc2c(=O)[nH]1)C(=O)c1ccc(C)c(NC(=O)c2ccco2)c1, the Potency was active: 8.28 µM. In the case of O=C(Nc1ccc(Cl)c(Cl)c1)N1CC=C(c2ccccc2)CC1, the Potency is reported as inconclusive: 18.5 µM [inhibitor, single point]. In the case of C(=C/c1ccnc2nc(SC/C=C/c3ccccc3)nn12)/c1ccccc1, the Potency is reported as active: 14.7 µM. With COc1ccc(NC(=O)c2cc3c(CO)cnc(C)c3oc2=Nc2cccc(F)c2)c(OC)c1 the Potency was inconclusive: 1.47 µM [inhibitor, full curve]. With CCCc1nnc(NC(=O)CCC(=O)NC2CCCCCC2)s1 the Potency was inconclusive: 18.5 µM [inhibitor, single point]. In the case of COc1ccc(-c2cc(CNC(=O)CN3CCN(C)CC3)on2)cc1, the Potency is reported as inconclusive: 0.0262 µM [inhibitor, partial curve, poor fit]. For COc1ccc(OC(C)C(=O)Nc2ccc(F)cc2F)cc1 (stereo unspecified), the Potency was “inactive”. In the case of O=C(Nc1ccc(Cl)c([N+](=O)[O-])c1)c1ccc(NCCCN2CCOCC2)c([N+](=O)[O-])c1, the Potency is reported as inconclusive: 16.5 µM [inhibitor, single point]. In the case of O=C(Nc1ccc(F)cc1F)c1cccnc1, the Potency is reported as inconclusive: 18.5 µM [inhibitor, single point]. In the case of Cc1cccc(OCCN2CCOCC2)c1C, the Potency is reported as inconclusive: 13.1 µM [inhibitor, single point]. In the case of CC(C)NC[C@H](O)COc1cccc2[nH]ccc12, the Potency is reported as “inactive”. In the case of O=C(NCC(c1ccco1)N1CCCC1)c1ccc(S(=O)(=O)Nc2ccccc2F)cc1 (stereo unspecified), the Potency is reported as inconclusive: 10.4 µM [inhibitor, single point]. With c1ccc(N2OCC3Cn4c(nc5ccccc54)C32)cc1 (stereo unspecified) the Potency was “inactive”. For CN(C(=O)CSC1=NC2C(N=N1)c1cc(Br)ccc1N2C)C1CCCCC1 (stereo unspecified), the Potency was inconclusive: 4.65 µM [inhibitor, partial curve]. In the case of Cc1cc(=O)cc(C)n1-c1ccc(Cl)cc1, the Potency is reported as inconclusive: 0.147 µM [inhibitor, full curve, poor fit]. In the case of CCCOc1ccc(-c2c(C(=O)N/N=C/C3CCCCC3)nnn2-c2nonc2N)cc1, the Potency is reported as inconclusive: 18.5 µM [inhibitor, single point]. For CC1Cc2cccc3c(O)c(C(=O)c4nn[nH]n4)c(=O)n1c23 (stereo unspecified), the Potency was “inactive”. In the case of CC(C)=NN1C(c2nonc2N)=NOC1(C)C, the Potency is reported as “inactive”. In the case of CCN(CC)c1ccc(/C=N/N2CCN(Cc3ccccc3)CC2)c(O)c1, the Potency is reported as inconclusive: 10.4 µM [inhibitor, partial curve]. For COc1ccc([C@H]2C(C#N)=C([S-])N[C@](C)(O)[C@@H]2[n+]2ccccc2)cc1, the Potency was inconclusive: 4.15 µM [inhibitor, partial curve]. In the case of O=C1NC(c2cccnc2)C(C(=O)c2cccs2)C(O)(C(F)(F)F)N1 (stereo unspecified), the Potency is reported as inconclusive: 9.28 µM [inhibitor, single point]. In the case of COc1ccc(CCNC(=S)Nc2ccccc2C)cc1, the Potency is reported as inconclusive: 14.7 µM [inhibitor, partial curve, poor fit]. In the case of O=c1ccn(Cc2ccccc2)cc1, the Potency is reported as “inactive”. With Cn1ccnc1SCC(=O)Nc1ccc2ccccc2c1 the Potency was “inactive”. With COC(=O)CCC(=O)OC1(C)C(=O)C=C2C=C(C3CC3)N(C3CCCCC3)C=C2C1=O (stereo unspecified) the Potency was inconclusive: 13.1 µM [inhibitor, single point]. In the case of C[C@H]1[C@H](NC(=O)C(=NOC(C)(C)C(=O)O)c2csc(N)n2)C(=O)N1S(=O)(=O)O, the Potency is reported as “inactive”. For CC(=O)Oc1c(Cl)c(N2CCOCC2)c(OC(C)=O)c2ccccc12, the Potency was “inactive”. For Cc1cccn2c(=O)c(/C=C(\C#N)S(=O)(=O)c3ccccc3)c(N3CCN(c4ccccc4)CC3)nc12, the Potency was inconclusive: 18.5 µM [inhibitor, single point]. In the case of COCCN(C)Cc1nc(C(c2ccccc2)c2ccccc2)no1, the Potency is reported as inconclusive: 18.5 µM [inhibitor, single point]. With CC(C)CCNC(=O)c1cnn2c(C(F)(F)F)cc(-c3ccco3)nc12 the Potency was active: 9.28 µM.
